Patent US20200087408A1 (ANAPTYSBIO, published 2020)
No constants are given. Whether binding was seen depends on the method and setting. Some entries that bind do so weakly or less than the wild type. Each block holds one binder with its values, some of them ahead of it.

How the values were obtained:
[1] = target: T1, human IL-36R (monomeric antigen of Example 8) (human) (UniProt Q9HB29); assay: BIACORE SPR cross-competition: APE6155 captured by anti-human IgG, IL-36R at 1 uM run over it
T1 sequence (looked up): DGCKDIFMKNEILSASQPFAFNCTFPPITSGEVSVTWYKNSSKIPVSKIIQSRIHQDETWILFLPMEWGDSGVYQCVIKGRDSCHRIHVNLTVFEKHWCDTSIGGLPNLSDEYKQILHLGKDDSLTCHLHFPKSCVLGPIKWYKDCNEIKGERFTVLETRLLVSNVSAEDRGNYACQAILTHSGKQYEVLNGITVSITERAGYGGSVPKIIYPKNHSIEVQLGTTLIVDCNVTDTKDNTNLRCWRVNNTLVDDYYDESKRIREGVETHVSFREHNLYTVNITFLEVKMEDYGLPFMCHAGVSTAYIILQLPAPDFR

[2] = target: T1, human IL-36R (monomeric antigen of Example 8) (human); assay: BIACORE SPR cross-competition: secondary antibody on IL-36R held by captured primary antibody APE5100
[3] = target: T1, human IL-36R (monomeric antigen of Example 8) (human); assay: BIACORE T200 cross-competition, primary antibody captured, IL-36R at 1 µM, then secondary antibody
[4] = target: T1, human IL-36R (monomeric antigen of Example 8) (human); assay: BIACORE SPR cross-competition: APE5100 captured by anti-human IgG, IL-36R at 1 uM run over it
[5] = target: T1, human IL-36R (monomeric antigen of Example 8) (human); assay: BIACORE SPR cross-competition: secondary antibody on IL-36R held by captured primary antibody APE6155

binding [1]: binds
binding [2]: binds
B1: Hzd 5D3 (APE6155) (antibody, V domains shown)
VH: QVQLVQSGAEVKKPGASVKVSCKASGYTFTNYWMNWVRQAPRQGLEWMGMFHPTGDVTRLNQKFKDRVTMTRDTSTSTVYMELSSLRSEDTAVYYCARTTSMIIGGFAYWGQGTLVTVSS
VL: DIVMTQTPLSLSVTPGQPASISCRSSKSLLHRNAITYFYWYLHKPGQPPQLLIYQMSNLASGVPDRFSGSGSGTDFTLKISRVEAEDVGVYYCAQNLELPLTFGGGTKVEIK
notes: also called APE6917; APE06155

binding [3]: binds
binding [4]: binds
binding [5]: binds
B2: APE5100 (1D9) (antibody, V domains shown)
VH: QVQLMQSGAEVKKPGASVKVSCKASGFTFTSYDINWVRQAPGQRLEWMGWIYPGDSSTKYNEKFKGRVTITRDKSANTAYMELASLRSEDTAVYFCTRSFYTMDYWGQGTTVTVSS
VL: DIVMTQSPLSLPVTPGEPASISCRSSKSLLHSNANTYLYWFLQKPGQSPQLLISRMSNLASGVPDRFSGSGSGTDFTLKISRVEAEDVGVYYCMQHLEYPFTFGQGTKLEIK

binding [2]: binds
B3: Chimeric 18D4 (APE3847) (antibody, V domains shown)
VH: DVQFQESGPGLVKPSQSLSLTCTVTGYSITSDFAWNWIRQFPGNKLEWMGYISYSGDTNYNPSLKSRISITRDTSKNQFFLQLNSVTTEDTATYFCAIRGPYSFTYWGPGTLVTVSS
VL: DIQMTQTTSSLSASLGDRVTINCRASQDINNYLNWYQQKPDGTIRLLIYYTSRLHSGVPSRFSPNGSGTDYSLTINNLEQEDIATYFCQQGHTLPWTFGGGTKLEIK
